# Laboratory results: PubChem BioAssay AID504764 (Drosophila RNAi Screening Center, 2011)
# Aim: 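Genes whose knock-down alters Notch-dependent transcription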 (primary screen)
# Cells: Drosophila Kc167 cells
# Reagents: long dsRNA against Drosophila genes
# Timing: about 5 days (4 days dsRNA, then 24 h after transfection)
# Challenge: transfection of constitutively active membrane-tethered Notch lacking the extracellular domain, read 24 h later
# Read-out: 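Light from a Notch-responsive E(spl)m3 luciferase reporter under active Notch, with control-promoter and no-Notch reporter wells to normalise; raw counts from paired wells a and b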
# Scale: induced reporter light, run 1, well a and induced reporter light, run 1, well b: higher = more light from the Notch target reporter with active Notch; control promoter light, run 1, well a and control promoter light, run 1, well b: higher = more light from the viral control promoter (cell number, transfection, viability); uninduced reporter light, run 1, well a: higher = more light from the Notch target reporter without active Notch
# Call rule: 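Wells with low control signal or poorly matching duplicates excluded; duplicates averaged; per source plate, z beyond ±2 for induced/control log2 ratio or beyond ±1.8 for induced/uninduced marks a hit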
# Calls: active = modifier hit (raised or lowered Notch signal); inactive = not a hit
# In all, the deposit lists about 22,000 reagents; this is a random part of those that have a named target and a result. Of all reagents, 403 (1.9%) are marked active. 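Unnormalised raw counts per well; ratio z-scores behind the hit calls and whether each hit raises or lowers signal are not deposited.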 No sequences are given here. The record does not give: the amount of reagent.
gene knocked down,DRSC id,"induced reporter light, run 1, well a","induced reporter light, run 1, well b","control promoter light, run 1, well a","control promoter light, run 1, well b","uninduced reporter light, run 1, well a",Outcome
Rpt6R (GeneID 43635),DRSC15431,1.51e5,1.17e5,1.89e5,1.71e5,14125,inactive
Rfk (GeneID 40936),DRSC15454,1.80e5,1.39e5,1.27e5,98650,12120,inactive
CG18048 (GeneID 40782),DRSC12573,73695,1.09e5,93440,66615,6485,inactive
Gprk2 (GeneID 49045),DRSC16682,90035,94980,1.07e5,1.13e5,7900,inactive
CG13589 (GeneID 37906),DRSC04225,1.89e5,1.97e5,1.87e5,2.06e5,14100,inactive
CG4593 (GeneID 31649),DRSC18374,1.60e5,1.53e5,3.22e5,2.75e5,12805,inactive
Ciz1 (GeneID 39161),DRSC09675,1.54e5,1.11e5,1.73e5,1.06e5,7765,inactive
Cyp4s3 (GeneID 32444),DRSC20241,1.25e5,95825,1.33e5,1.06e5,16655,inactive
CG14511 (GeneID 43445),DRSC14863,1.01e5,70810,1.32e5,1.18e5,8775,inactive
CG4306 (GeneID 40017),DRSC10409,2.63e5,2.08e5,2.48e5,2.18e5,9370,inactive
Arc42 (GeneID 42364),DRSC14340,1.67e5,1.57e5,1.41e5,1.38e5,11745,inactive
Arc42 (GeneID 42364),DRSC15627,2.19e5,1.63e5,1.84e5,1.61e5,14505,inactive
CG33299 (GeneID 2768912),DRSC01085,1.66e5,1.77e5,2.22e5,2.28e5,13155,inactive
CG42539 (retired record) (GeneID 8674027),DRSC13691,1.75e5,1.65e5,1.37e5,1.37e5,12935,inactive
CG42539 (retired record) (GeneID 8674027),DRSC21639,,,,,,inactive
D19A (GeneID 38718),DRSC11133,64005,63625,52190,24800,7010,inactive
SERCA (GeneID 49297),DRSC04600,1.67e5,1.72e5,1.34e5,1.37e5,11350,inactive
comm3 (GeneID 39696),DRSC09993,1.50e5,1.69e5,1.55e5,1.95e5,6405,inactive
comm3 (GeneID 39696),DRSC09994,1.51e5,1.85e5,2.20e5,1.84e5,8470,inactive
comm3 (GeneID 39696),DRSC09995,1.29e5,1.27e5,1.77e5,1.63e5,7925,inactive

2 of these entries in another layout.
| gene knocked down | DRSC id | induced reporter light, run 1, well a | induced reporter light, run 1, well b | control promoter light, run 1, well a | control promoter light, run 1, well b | uninduced reporter light, run 1, well a | Outcome |
| --- | --- | --- | --- | --- | --- | --- | --- |
| CG4306 (GeneID 40017) | DRSC10409 | 2.63e5 | 2.08e5 | 2.48e5 | 2.18e5 | 9370 | inactive |
| Arc42 (GeneID 42364) | DRSC14340 | 1.67e5 | 1.57e5 | 1.41e5 | 1.38e5 | 11745 | inactive |
